doi:10.1101/2020.12.31.424961

Legend:
[1] = target: SARS-CoV-2 NSP5, SFB- or BioID2-tagged (SARS-CoV-2) (UniProt P0DTD1); assay: affinity purification with mass spectrometry + proximity labelling
[2] = target: SARS-CoV-2 ORF3a, SFB- or BioID2-tagged (SARS-CoV-2) (UniProt P0DTC3); assay: as above

Binder | binding [1] | binding [2]
OAS3 (protein, UniProt Q9Y6K5 1-1087) MDLYSTPAAALDRFVARRLQPRKEFVEKARRALGALAAALRERGGRLGAAAPRVLKTVKGGSSGRGTALKGGCDSELVIFLDCFKSYVDQRARRAEILSEMRASLESWWQNPVPGLRLTFPEQSVPGALQFRLTSVDLEDWMDVSLVPAFNVLGQAGSGVKPKPQVYSTLLNSGCQGGEHAACFTELRRNFVNIRPAKLKNLILLVKHWYHQVCLQGLWKETLPPVYALELLTIFAWEQGCKKDAFSLAEGLRTVLGLIQQHQHLCVFWTVNYGFEDPAVGQFLQRQLKRPRPVILDPADPTWDLGNGAAWHWDLLAQEAASCYDHPCFLRGMGDPVQSWKGPGLPRAGCSGLGHPIQLDPNQKTPENSKSLNAVYPRAGSKPPSCPAPGPTGAASIVPSVPGMALDLSQIPTKELDRFIQDHLKPSPQFQEQVKKAIDIILRCLHENCVHKASRVSKGGSFGRGTDLRDGCDVELIIFLNCFTDYKDQGPRRAEILDEMRAQLESWWQDQVPSLSLQFPEQNVPEALQFQLVSTALKSWTDVSLLPAFDAVGQLSSGTKPNPQVYSRLLTSGCQEGEHKACFAELRRNFMNIRPVKLKNLILLVKHWYRQVAAQNKGKGPAPASLPPAYALELLTIFAWEQGCRQDCFNMAQGFRTVLGLVQQHQQLCVYWTVNYSTEDPAMRMHLLGQLRKPRPLVLDPADPTWNVGHGSWELLAQEAAALGMQACFLSRDGTSVQPWDVMPALLYQTPAGDLDKFISEFLQPNRQFLAQVNKAVDTICSFLKENCFRNSPIKVIKVVKGGSSAKGTALRGRSDADLVVFLSCFSQFTEQGNKRAEIISEIRAQLEACQQERQFEVKFEVSKWENPRVLSFSLTSQTMLDQSVDFDVLPAFDALGQLVSGSRPSSQVYVDLIHSYSNAGEYSTCFTELQRDFIISRPTKLKSLIRLVKHWYQQCTKISKGRGSLPPQHGLELLTVYAWEQGGKDSQFNMAEGFRTVLELVTQYRQLCIYWTINYNAKDKTVGDFLKQQLQKPRPIILDPADPTGNLGHNARWDLLAKEAAACTSALCCMGRNGIPIQPWPVKAAV | binds | –
CLCC1 (protein, UniProt Q96S66 19-551) HDDDWIDPTDMLNYDAASGTMRKSQAKYGISGEKDVSPDLSCADEISECYHKLDSLTYKIDECEKKKREDYESQSNPVFRRYLNKILIEAGKLGLPDENKGDMHYDAEIILKRETLLEIQKFLNGEDWKPGALDDALSDILINFKFHDFETWKWRFEDSFGVDPYNVLMVLLCLLCIVVLVATELWTYVRWYTQLRRVLIISFLFSLGWNWMYLYKLAFAQHQAEVAKMEPLNNVCAKKMDWTGSIWEWFRSSWTYKDDPCQKYYELLLVNPIWLVPPTKALAVTFTTFVTEPLKHIGKGTGEFIKALMKEIPALLHLPVLIIMALAILSFCYGAGKSVHVLRHIGGPESEPPQALRPRDRRRQEEIDYRPDGGAGDADFHYRGQMGPTEQGPYAKTYEGRREILRERDVDLRFQTGNKSPEVLRAFDVPDAEAREHPTVVPSHKSPVLDTKPKETGGILGEGTPKESSTESSQSAKPVSGQDTSGNTEGSPAAEKAQLKSEAAGSPDQGSTYSPARGVAGPRGQDPVSSPCG | – | binds

These are yes or no findings as the source states them, for the method shown. In cells and extracts the contact can be indirect. A yes stands for co-enrichment or nearness to the bait. Other partners may have been found.
